Experimental data published in publication doi:10.1101/2025.06.20.659510.
These are yes or no findings as the source states them, for the method shown. Some results given as binding are weak or reduced against the parent protein; the word gives no strength.

Protein sequences, listed by entry. Tags and fused reporters are not part of them.
UniProt Q08369: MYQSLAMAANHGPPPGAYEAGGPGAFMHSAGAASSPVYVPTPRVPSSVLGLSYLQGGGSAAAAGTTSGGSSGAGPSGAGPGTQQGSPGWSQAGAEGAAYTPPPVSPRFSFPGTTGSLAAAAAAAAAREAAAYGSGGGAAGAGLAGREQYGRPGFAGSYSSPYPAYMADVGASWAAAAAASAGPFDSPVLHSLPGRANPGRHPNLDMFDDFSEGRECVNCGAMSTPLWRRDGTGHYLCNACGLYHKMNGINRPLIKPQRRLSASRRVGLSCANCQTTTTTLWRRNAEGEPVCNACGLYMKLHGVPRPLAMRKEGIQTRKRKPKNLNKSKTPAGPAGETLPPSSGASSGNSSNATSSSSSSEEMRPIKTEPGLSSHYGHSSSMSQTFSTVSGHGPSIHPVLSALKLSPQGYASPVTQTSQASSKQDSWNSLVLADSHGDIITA
UniProt P42582: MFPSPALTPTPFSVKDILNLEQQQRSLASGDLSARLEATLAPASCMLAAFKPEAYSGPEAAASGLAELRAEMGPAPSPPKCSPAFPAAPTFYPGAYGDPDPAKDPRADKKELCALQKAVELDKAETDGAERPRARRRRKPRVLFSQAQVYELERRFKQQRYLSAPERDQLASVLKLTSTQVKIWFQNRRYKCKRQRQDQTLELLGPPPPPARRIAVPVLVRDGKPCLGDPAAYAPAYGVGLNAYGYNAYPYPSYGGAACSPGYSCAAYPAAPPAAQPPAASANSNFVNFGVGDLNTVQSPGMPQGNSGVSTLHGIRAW

Assays:
HAND1 (mouse) = target: T1, HAND1 (mouse) (UniProt Q64279); assay: two-hybrid; liquid yeast two-hybrid in S. cerevisiae; pGADT7 Gal4 activation domain-Nkx2-5 (WT or variant) co-transformed with pGBKT7 Gal4 DNA-binding domain-TF (NKX2-5, GATA4, TBX5, TBX20b or HAND1); high stringency liquid medium (-Ade/-His/-Leu/Trp), 30°C, FDG fluorescence at two time-points, T2 normalised to T1; N188K with HAND1 followed out to day 5
T1 sequence: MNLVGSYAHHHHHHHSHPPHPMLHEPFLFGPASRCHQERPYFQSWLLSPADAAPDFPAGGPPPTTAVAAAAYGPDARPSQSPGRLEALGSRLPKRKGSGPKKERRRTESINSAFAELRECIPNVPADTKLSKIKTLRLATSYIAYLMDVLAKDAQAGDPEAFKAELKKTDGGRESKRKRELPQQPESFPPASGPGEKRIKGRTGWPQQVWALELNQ

GATA4 (mouse) = GATA4 (mouse) (UniProt Q08369); assay: as above

- binding (HAND1 (mouse)): binds
- binding (GATA4 (mouse)): binds
Substance: NKX2-5 wild type (from UniProt P42582 1-318)
